Measured values reported in article PMC3366998.
These are yes or no findings as the source states them, for the method shown. In cells and extracts the contact can be indirect. Some binding calls cover weakened binding; strength is not graded here.

By UniProt entry, the sequences of proteins in these tests, tags left out.
UniProt Q9Y466: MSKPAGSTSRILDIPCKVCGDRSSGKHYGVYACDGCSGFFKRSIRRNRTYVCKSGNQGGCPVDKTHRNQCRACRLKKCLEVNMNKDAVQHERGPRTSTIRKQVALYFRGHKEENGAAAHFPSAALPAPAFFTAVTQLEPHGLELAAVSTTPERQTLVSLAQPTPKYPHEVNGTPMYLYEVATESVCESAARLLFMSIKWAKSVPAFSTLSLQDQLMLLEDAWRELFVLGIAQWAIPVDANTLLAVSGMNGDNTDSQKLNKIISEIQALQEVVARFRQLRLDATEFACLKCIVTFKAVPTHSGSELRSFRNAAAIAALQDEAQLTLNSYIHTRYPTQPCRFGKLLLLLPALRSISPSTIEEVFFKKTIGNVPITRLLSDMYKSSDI

Target: TLX-FL-MycTAP (human) (UniProt Q9Y466)
Assay: co-IP; HEK293 cells transiently co-transfected; lysis in 50 mM HEPES pH 7.5, 150 mM NaCl, 1 mM MgCl2, 1 mM EGTA, 0.5% NP-40; TLX-FL-MycTAP precipitated (Protein G Sepharose beads, 4°C), FLAG-BCL11A-XL found by blot

- binding: binds
Substance: FLAG-BCL11A-XL (from UniProt Q9H165-1 1-835)
